# Measured values from publication PMC5444840.
# Results are given in words; binding and its absence hold for the method and conditions named. Binding can be weak; no strength is given.
# Molecular target: recombinant soluble VZV glycoprotein C ectodomain (VZV rSgC) (Varicella zoster virus, Dumas strain)
# Assay: SPR; binding screening, Biacore X-100: gC construct (rSgC, IgD or R2D) amine-coupled on a CM4 chip; chemokines injected at 100 nM in HBS-EP pH 7.4 at 30 ul/min, 90 s contact, 60 s dissociation; both purified
row,Binder,binding
1,"CCL1 (ligand, UniProt P22362 24-96) KSMQVPFSRCCFSFAEQEIPLRAILCYRNTSSICSNEGLIFKLKRGKEACALDTVGWVQRHRKMLRHCPSKRK",binds
2,"CXCL13 (ligand, UniProt O43927 23-109) VLEVYYTSLRCRCVQESSVFIPRRFIDRIQILPRGNGCPRKEIIVWKKNKSIVCVDPQAEWIQRMMEVLRKRSSSTLPVPVFKRKIP",binds
3,"CCL28 (ligand, UniProt Q9NRJ3 20-127) SEAILPIASSCCTEVSHHISRRLLERVNMCRIQRADGDCDLAAVILHVKRRRICVSPHNHTVKQWMKVQAAKKNGKGNVCHRKKHHGKRNSNRAHQGKHETYGHKTPY",binds
4,"CCL27 (ligand, UniProt Q9Y4X3 25-112) FLLPPSTACCTQLYRKPLSDKLLRKVIQVELQEADGDCHLQAFVLHLAQRSICIHPQNPSLSQWFEHQERKLHGTLPKLNFGMLRKMG",binds weakly
5,"CXCL16 (ligand, UniProt Q9H2A7 30-205) NEGSVTGSCYCGKRISSDSPPSVQFMNRLRKHLRAYHRCLYYTRFQLLSWSVCGGNKDPWVQELMSCLDLKECGHAYSGIVAHQKHLLPTSPPISQASEGASSDIHTPAQMLLSTLQSTQRPTLPVGSLSSDKELTRPNETTIHTAGHSLAAGPEAGENQKQPEKNAGPTARTSAT",binds weakly
6,"CCL18 (ligand, UniProt P55774 21-89) AQVGTNKELCCLVYTSWQIPQKFIVDYSETSPQCPKPGVILLTKRGRQICADPNKKWVQKYISDLKLNA",binds
7,"CCL15 (ligand, UniProt Q16663 22-113) QFTNDAETELMMSKLPLENPVVLNSFHFAADCCTSYISQSIPCSLMKSYFETSSECSKPGVIFLTKKGRQVCAKPSGPGVQDCMKKLKPYSI",no binding (tested: 100 nM)
8,"CCL22 (ligand, UniProt O00626 25-93) GPYGANMEDSVCCRDYVRYRLPLRVVKHFYWTSDSCPRPGVVLLTFRDKEICADPRVPWVKMILNKLSQ",binds
9,"CCL16 (ligand, UniProt O15467 24-120) QPKVPEWVNTPSTCCLKYYEKVLPRRLVVGYRKALNCHLPAIIFVTKRNREVCTNPNDDWVQEYIKDPNLPLLPTRNLSTVKIITAKNGQPQLLNSQ",binds
10,"CCL14 (66 aa) (ligand, UniProt Q16627 20-93) TKTESSSRGPYHPSECCFTYTTYKIPRQRIMDYYETNSQCSKPGIVFITKRGHSVCTNPSDKWVQDYIKDMKEN",no binding (tested: 100 nM)
11,"CCL14 (72 aa) (ligand, UniProt Q16627 20-93) TKTESSSRGPYHPSECCFTYTTYKIPRQRIMDYYETNSQCSKPGIVFITKRGHSVCTNPSDKWVQDYIKDMKEN",no binding (tested: 100 nM)
12,"CCL23 (ligand, UniProt P55773 22-120) RVTKDAETEFMMSKLPLENPVLLDRFHATSADCCISYTPRSIPCSLLESYFETNSECSKPGVIFLTKKGRRFCANPSDKQVQVCMRMLKLDTRIKTRKN",no binding (tested: 100 nM)
13,"CXCL14 (ligand, UniProt O95715 35-111) SKCKCSRKGPKIRYSDVKKLEMKPKYPHCEEKMVIITTKSVSRYRGQEHCLHPKLQSTKRFIKWYNAWNEKRRVYEE",binds

# Molecular target: VZV gC IgD with a C-terminal Twin-Streptavidin tag (IgD-Strep) (Varicella zoster virus, Dumas strain)
# Assay: SPR; screening: IgD-Strep amine-coupled on a CM5 chip (2864 RU); chemokines injected at 100 nM; both purified
row,Binder,binding
1,"CXCL13 (ligand, UniProt O43927 23-109) VLEVYYTSLRCRCVQESSVFIPRRFIDRIQILPRGNGCPRKEIIVWKKNKSIVCVDPQAEWIQRMMEVLRKRSSSTLPVPVFKRKIP",binds
